PubChem BioAssay AID540275 (National Center for Advancing Translational Sciences (NCATS), 2011)
The campaign covered roughly 320,000 compounds. About 620 (0.19%) were called active. Inconclusive means that the source gave no clear call. Such entries were picked first, then a sample of the others. Cut-off read from the data, not from the text of the source: active = activation above about 80%; inconclusive = between about 30% and that limit; inactive = weaker than that.

Protein sequences, listed by entry. Tags and fused reporters are not part of them.
UniProt Q8NER1, whole entry, looked up: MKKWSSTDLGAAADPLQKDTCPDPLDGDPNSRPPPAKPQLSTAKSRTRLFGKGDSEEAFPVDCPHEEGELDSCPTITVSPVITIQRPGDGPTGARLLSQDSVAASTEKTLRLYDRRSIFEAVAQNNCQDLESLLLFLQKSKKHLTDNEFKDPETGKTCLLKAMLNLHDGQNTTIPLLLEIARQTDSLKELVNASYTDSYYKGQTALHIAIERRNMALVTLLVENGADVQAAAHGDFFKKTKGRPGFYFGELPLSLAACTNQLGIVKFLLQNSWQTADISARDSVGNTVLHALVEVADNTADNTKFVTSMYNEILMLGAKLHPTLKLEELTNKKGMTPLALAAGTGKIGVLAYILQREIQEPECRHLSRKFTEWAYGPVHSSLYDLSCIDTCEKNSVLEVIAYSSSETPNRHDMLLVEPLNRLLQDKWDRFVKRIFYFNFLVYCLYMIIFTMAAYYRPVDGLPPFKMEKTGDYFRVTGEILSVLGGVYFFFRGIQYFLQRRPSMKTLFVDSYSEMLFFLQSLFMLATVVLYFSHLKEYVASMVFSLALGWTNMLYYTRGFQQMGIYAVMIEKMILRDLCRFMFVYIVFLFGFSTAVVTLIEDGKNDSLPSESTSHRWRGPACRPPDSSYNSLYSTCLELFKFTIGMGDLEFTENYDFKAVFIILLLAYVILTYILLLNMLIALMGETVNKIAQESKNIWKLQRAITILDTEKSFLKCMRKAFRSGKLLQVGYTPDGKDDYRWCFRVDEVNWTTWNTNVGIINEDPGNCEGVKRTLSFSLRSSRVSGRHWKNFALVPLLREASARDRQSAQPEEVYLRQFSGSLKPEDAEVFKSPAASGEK

Biological target: Transient receptor potential cation channel subfamily V member 1 (Homo sapiens) (UniProt Q8NER1)
Assay: HTS Assay for Compounds that Act as Agonists of the Vanilloid Receptor 1; note: 0% is about no effect
Conditions: TRPV1-expressing cells, Fluo-8 calcium influx, agonist mode; at 8.33 µM, active compounds read high
Outline: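 Cells expressing TRPV1 were dye-loaded with Fluo-8 and read kinetically: 10 s baseline, 3 min after compound (agonist portion), then 2 min after EC20 capsaicin (allosteric enhancer portion). Calcium-bound dye fluorescence at 480/520 nm.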

Compound | activation
O=C(CN(c1ccc(F)cc1)S(=O)(=O)c1ccc2c(c1)OCCO2)Nc1ccccc1 | inactive: -7.74%
O=C(NCc1ccco1)Nc1ccc(Br)cc1 | inconclusive: 46.5%
O=[N+]([O-])c1ccc(-c2nc(NCC3CCCO3)c3ccccc3n2)cc1 (stereo not drawn) | inconclusive: 31.1%
CC1CCN(CCOc2ccc(OCc3ccccc3)cc2)CC1 | inactive: 1.14%
Cc1cc(NC(=O)c2cccnc2)ccc1Br | inconclusive: 39.2%
COc1ccccc1/C=C/C(=O)Nc1cccc(C(C)=O)c1 | inconclusive: 62%
CC(C)(C)c1ccc(C(=O)COC(=O)CN2C(=O)NC3(CCCC3)C2=O)cc1 | inconclusive: 60.9%
Cc1cc2oc(=O)cc(CN3CCCCC3C)c2cc1C (stereo not drawn) | inconclusive: 30.3%
COc1ccc(NC(=O)c2onc(C)c2Cl)cc1 | inconclusive: 46.1%
Cc1cccc(N(Cc2cc3ccc(C)cc3[nH]c2=O)C(=O)c2ccco2)c1 | inconclusive: 46.8%
CCc1ccc(-c2nc(CSCC(=O)NC3CC3)c(C)o2)cc1 | inconclusive: 58.4%
Cc1ccc(NC(=O)c2cnc3ccccc3n2)cc1C | active: 84.4%
O=c1[nH]c2ccc(Cl)cc2c(-c2ccccc2)c1[N+](=O)[O-] | inactive: 1.41%
COc1cccc(CN(C)CC(=O)Nc2cccc(C(F)(F)F)c2)c1OC | inconclusive: 39.9%
O=Cc1s/c(=N\S(=O)(=O)c2ccccc2)n(CCCCl)c1Cl | inactive: 6.54%
CC1Oc2ccccc2N(CC(=O)c2cccc(Cl)c2)C1=O (stereo not drawn) | inconclusive: 42.6%
CCc1ccc2oc(=O)cc(CN3CCC(C)CC3)c2c1 | inconclusive: 45%
CCC/C=N/NC(=O)c1ccc(F)cc1 | inconclusive: 41.7%
Cc1ccc(-n2nc(C)c3c(C)c(CCC(=O)NCCCOC(C)C)c(C)nc32)cc1 | inconclusive: 37.8%
CCOC(=O)c1cc(=O)n(Cc2ccccc2C)c2ccccc12 | inconclusive: 47.7%

Structures above with fluorine:
Compound | activation
O=C(CN(c1ccc(F)cc1)S(=O)(=O)c1ccc2c(c1)OCCO2)Nc1ccccc1 | inactive: -7.74%
COc1cccc(CN(C)CC(=O)Nc2cccc(C(F)(F)F)c2)c1OC | inconclusive: 39.9%
CCC/C=N/NC(=O)c1ccc(F)cc1 | inconclusive: 41.7%

(continued)

Compound | activation
O=C(CSc1nncn1-c1ccccc1F)NC1CCCCC1 | inactive: -1.08%
CCc1nc(SCc2ccc(Cl)cc2)n[nH]1 | inactive: 6.47%
COCC(C)n1c(C)cc(C(=O)COC(=O)c2c(C)nn(-c3ccccc3)c2C)c1C (stereo not drawn) | inactive: 3.92%
OCCC1CN(Cc2ccc(F)cc2Cl)CCN1CCc1ccccc1 (stereo not drawn) | inactive: 4.14%
Cn1cccc1/C=N\NC(=O)C1COc2ccc(C(C)(C)C)cc2O1 (stereo not drawn) | inconclusive: 65.1%
O=C(c1n[nH]c2ccccc12)N1CCN(c2ccc(F)cc2)CC1 | inconclusive: 46.7%
COC(=O)c1ccc(CSc2nnc(-c3ccncc3)n2Cc2ccccc2)o1 | inactive: 1.19%
COc1ccc(NC(=O)Nc2ccccc2)cc1S(=O)(=O)N1CCCCC1 | inconclusive: 39.5%
COc1ccccc1/C=C1/C(=O)N(c2ccc([N+](=O)[O-])cc2)N=C1C | inactive: 3.2%
N/C(=N\OC(=O)c1ccc(Cl)cc1)c1nonc1N | active: 80.6%
COc1cc(/C=N/NC(=O)c2ccc(N)cc2)ccc1OC(=O)c1cccc(C)c1 | inactive: 1.65%
CN(Cc1ccccc1)C(=O)c1[nH]cnc1C(=O)N[C@@H](Cc1ccccc1)C(=O)OC(C)(C)C | inconclusive: 32.8%
CNC(=O)c1cc(S(=O)(=O)Nc2ccc3c(c2)OCO3)ccc1C | inactive: -7.29%
CCOC(=O)/C(C#N)=C/c1c(OCC)n(CC)c2ccccc12 | inconclusive: 31.1%
O=C(CSc1nc2ccc([N+](=O)[O-])cc2[nH]1)NC1CCCCC1 | inconclusive: 34.5%
Cc1cc(C(=O)Nc2ccccc2)oc1C | inconclusive: 42.4%
O=C(N1CCOCC1)N1CCN(C(c2ccccc2)c2ccccc2)CC1 | inconclusive: 56.7%
Cc1ccc(-c2ccnc(-c3ccc(O)cc3)n2)cc1 | inconclusive: 36.2%
CCOC(=O)c1ccc(NC(=O)N2CCN(c3cccc(OC)c3)CC2)cc1 | active: 99%
Clc1ccc(C(c2nnnn2C2CCCCC2)N(Cc2cccnc2)Cc2ccco2)cc1 (stereo not drawn) | inconclusive: 38.8%

Compound | activation
COc1ccc(CCN2C(=O)NC(NS(=O)(=O)c3ccccc3)(C(F)(F)F)C2=O)cc1OC (stereo not drawn) | inactive: 0.844%
S=C(Nc1cccnc1)Nc1cccc2cnccc12 | inactive: -0.897%
CC(C)(C)NC(=O)N1CCN(c2nc3ccc(Cl)cc3s2)CC1 | inconclusive: 42.8%
Cc1cccn2c(=O)c3cc(C#N)c(=N)n(CCN4CCOCC4)c3nc12 | inactive: -1.13%
CCN(CC(=O)Nc1ccc(OC)cc1)C(=O)Cc1cccs1 | inactive: -1.92%
CC(C)(C)OC(=O)[C@H](Cc1ccccc1)NC(=O)c1nc[nH]c1C(=O)N[C@@H](Cc1ccccc1)C(=O)OC(C)(C)C | inactive: 13.6%
CC(=O)Nc1ccc(NC2=Nc3ccccc3N3C2=Nc2c(c(C)nn2-c2ccccc2)C3c2ccccc2)cc1 (stereo not drawn) | inactive: 1.11%
CCN(CC)C(=O)c1ccc(-c2nnc(Nc3cccc(O)c3)c3ccccc23)cc1 | inactive: -3.9%
O=C(NC1C2CCCC1CN(C1CC1)C2)c1ccc(Cl)cc1 (stereo not drawn) | inconclusive: 37.8%
CC[C@@H](C)[C@H](NC(=O)OCc1ccccc1)c1nnc([C@@H](NC(=O)OCc2ccccc2)[C@@H](C)CC)o1 | inactive: 17.1%
S=C(Nc1ccccc1)Nc1nccs1 | inconclusive: 36.8%
CS(=O)(=O)N(Cc1ccc(Cl)cc1)c1ccc(C(=O)NCCC2=CCCCC2)cc1 | inconclusive: 63.4%
CCCOC(=O)c1ccc(NC(=O)c2cnccn2)cc1 | inconclusive: 40.8%
COc1ccccc1/C=C(/C(=O)OCC(=O)NCc1ccccc1)c1ccccc1 | inconclusive: 36.3%
Cc1cccc(NC(=S)NC2CCCCCC2)c1C | inconclusive: 34.8%
Cc1ccc(S(=O)(=O)Nc2cnc3ccccc3c2)cc1 | inactive: 2.7%
Cc1c(C(=O)N/N=C/c2cccs2)nnn1-c1nonc1N | inconclusive: 34%
COc1cc(/C=C2\CC/C(=C\c3ccc(OCCO)c(OC)c3)C2=O)ccc1OCCO | inconclusive: 47.8%
